Test results from US8119766 (UNIVERSITY OF IOWA RESEARCH FOUNDATION, dated 2012).
Results are given in words; binding and its absence hold for the method and conditions named. For some of these results: Binding seen in cells or lysates may run through a third protein. Some entries that bind do so weakly or less than the wild type. For some of these results: Where a sequence is shown, tags or fusion partners need not be part of it. Each block holds one molecule with its values, some of them ahead of it.

Sequences of proteins named here, by UniProt entry; tags and fusion partners are left off. A change or cut given only in a name is not applied to a line headed by its entry.
UniProt P19137: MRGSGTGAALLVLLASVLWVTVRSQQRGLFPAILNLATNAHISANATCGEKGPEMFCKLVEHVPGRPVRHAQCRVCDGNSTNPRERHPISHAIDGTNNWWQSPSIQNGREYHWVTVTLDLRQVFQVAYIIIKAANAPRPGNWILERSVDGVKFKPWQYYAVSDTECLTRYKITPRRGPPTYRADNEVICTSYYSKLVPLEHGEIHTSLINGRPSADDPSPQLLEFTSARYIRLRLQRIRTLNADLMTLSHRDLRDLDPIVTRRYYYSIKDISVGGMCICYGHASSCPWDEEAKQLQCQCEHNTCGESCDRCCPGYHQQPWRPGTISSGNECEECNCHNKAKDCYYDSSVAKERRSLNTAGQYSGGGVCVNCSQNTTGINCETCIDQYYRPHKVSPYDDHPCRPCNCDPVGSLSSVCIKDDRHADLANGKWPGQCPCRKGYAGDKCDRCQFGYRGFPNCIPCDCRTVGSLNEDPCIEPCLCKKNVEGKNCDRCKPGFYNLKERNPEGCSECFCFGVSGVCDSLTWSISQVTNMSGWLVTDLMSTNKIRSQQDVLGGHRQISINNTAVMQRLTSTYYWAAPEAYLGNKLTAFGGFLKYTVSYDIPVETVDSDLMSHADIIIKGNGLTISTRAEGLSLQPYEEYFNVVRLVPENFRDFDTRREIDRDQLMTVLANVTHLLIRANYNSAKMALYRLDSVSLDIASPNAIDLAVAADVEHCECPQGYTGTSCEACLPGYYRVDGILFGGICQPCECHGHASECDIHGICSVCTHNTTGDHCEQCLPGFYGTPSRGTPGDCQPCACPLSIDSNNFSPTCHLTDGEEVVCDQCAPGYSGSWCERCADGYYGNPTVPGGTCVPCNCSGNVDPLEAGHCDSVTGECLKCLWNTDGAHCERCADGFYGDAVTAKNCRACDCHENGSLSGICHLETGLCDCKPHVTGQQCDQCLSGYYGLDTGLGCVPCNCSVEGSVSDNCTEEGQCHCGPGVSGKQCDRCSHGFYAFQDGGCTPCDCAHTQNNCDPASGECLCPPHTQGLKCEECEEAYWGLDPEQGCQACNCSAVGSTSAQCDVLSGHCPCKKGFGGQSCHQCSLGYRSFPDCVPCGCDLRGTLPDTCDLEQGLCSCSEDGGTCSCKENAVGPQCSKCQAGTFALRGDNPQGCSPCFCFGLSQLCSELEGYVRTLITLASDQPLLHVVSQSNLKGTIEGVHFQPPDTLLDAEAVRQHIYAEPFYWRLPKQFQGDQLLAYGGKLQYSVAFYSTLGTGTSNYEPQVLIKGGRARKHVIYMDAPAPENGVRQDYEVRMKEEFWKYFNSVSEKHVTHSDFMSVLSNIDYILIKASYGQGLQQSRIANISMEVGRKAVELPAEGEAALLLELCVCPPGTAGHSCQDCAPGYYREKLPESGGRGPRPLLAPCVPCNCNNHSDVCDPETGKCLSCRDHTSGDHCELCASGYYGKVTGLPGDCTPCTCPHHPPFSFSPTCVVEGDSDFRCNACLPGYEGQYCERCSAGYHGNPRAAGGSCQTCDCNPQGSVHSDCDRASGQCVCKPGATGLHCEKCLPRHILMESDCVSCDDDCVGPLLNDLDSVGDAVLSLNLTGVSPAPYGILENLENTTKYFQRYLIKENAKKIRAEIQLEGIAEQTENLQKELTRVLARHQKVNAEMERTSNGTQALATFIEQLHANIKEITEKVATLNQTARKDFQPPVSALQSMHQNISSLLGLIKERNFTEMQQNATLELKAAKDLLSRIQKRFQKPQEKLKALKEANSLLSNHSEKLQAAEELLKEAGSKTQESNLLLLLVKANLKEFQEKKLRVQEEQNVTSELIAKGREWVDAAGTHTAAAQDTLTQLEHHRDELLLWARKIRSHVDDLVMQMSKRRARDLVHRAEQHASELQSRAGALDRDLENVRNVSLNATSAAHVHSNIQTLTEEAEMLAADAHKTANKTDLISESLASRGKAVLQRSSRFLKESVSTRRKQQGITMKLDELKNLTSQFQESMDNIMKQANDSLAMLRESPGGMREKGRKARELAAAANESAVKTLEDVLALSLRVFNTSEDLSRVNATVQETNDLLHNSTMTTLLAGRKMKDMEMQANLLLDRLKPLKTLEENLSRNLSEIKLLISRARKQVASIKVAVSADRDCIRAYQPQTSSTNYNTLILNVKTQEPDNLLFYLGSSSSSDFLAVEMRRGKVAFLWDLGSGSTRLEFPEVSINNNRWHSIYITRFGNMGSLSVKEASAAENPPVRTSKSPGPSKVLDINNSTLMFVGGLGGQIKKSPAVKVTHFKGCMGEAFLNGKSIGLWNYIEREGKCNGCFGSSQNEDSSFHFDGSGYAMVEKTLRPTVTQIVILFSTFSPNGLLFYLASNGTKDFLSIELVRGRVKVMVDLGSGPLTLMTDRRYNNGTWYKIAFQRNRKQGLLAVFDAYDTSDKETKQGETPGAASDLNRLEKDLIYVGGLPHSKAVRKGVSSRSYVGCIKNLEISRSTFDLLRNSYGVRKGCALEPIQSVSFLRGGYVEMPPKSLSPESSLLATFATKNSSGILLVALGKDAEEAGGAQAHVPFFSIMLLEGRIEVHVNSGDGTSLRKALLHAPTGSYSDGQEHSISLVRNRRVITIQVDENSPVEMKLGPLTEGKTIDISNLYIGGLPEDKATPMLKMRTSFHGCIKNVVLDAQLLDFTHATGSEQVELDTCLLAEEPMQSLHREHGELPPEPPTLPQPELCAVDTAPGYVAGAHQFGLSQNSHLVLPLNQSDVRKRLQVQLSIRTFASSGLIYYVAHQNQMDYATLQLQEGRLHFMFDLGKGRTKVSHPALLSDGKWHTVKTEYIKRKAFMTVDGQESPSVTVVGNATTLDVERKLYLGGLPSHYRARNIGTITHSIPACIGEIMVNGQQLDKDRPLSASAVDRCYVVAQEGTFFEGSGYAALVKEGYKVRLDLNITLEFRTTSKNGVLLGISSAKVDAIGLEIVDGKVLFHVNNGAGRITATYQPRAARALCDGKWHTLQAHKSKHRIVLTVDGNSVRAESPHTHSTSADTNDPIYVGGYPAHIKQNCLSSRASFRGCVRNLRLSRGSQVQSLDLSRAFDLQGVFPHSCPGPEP

Experiments:
DG-G [1] = molecular target: T1, DG-G (UniProt Q28685); experiment: laminin overlay
T1 sequence (glycosylated; sites not stated, looked up): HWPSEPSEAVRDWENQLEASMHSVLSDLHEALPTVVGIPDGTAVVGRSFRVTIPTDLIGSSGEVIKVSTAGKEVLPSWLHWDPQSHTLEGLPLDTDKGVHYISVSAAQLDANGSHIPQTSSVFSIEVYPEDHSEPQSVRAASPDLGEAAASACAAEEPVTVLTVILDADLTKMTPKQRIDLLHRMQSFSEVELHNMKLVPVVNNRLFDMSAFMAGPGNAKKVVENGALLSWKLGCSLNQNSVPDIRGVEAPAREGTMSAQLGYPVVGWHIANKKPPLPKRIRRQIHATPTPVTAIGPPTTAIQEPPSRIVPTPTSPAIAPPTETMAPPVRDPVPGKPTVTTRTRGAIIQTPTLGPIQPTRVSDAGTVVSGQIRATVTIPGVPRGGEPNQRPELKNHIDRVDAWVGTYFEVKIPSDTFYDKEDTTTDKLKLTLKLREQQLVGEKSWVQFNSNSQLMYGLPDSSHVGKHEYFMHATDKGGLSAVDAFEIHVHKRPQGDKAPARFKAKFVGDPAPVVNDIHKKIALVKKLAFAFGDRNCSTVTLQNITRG

DG-WT [2] = molecular target: T2, DG-WT (UniProt Q28685); experiment: laminin overlay
T2 sequence (glycosylated; sites not stated, looked up): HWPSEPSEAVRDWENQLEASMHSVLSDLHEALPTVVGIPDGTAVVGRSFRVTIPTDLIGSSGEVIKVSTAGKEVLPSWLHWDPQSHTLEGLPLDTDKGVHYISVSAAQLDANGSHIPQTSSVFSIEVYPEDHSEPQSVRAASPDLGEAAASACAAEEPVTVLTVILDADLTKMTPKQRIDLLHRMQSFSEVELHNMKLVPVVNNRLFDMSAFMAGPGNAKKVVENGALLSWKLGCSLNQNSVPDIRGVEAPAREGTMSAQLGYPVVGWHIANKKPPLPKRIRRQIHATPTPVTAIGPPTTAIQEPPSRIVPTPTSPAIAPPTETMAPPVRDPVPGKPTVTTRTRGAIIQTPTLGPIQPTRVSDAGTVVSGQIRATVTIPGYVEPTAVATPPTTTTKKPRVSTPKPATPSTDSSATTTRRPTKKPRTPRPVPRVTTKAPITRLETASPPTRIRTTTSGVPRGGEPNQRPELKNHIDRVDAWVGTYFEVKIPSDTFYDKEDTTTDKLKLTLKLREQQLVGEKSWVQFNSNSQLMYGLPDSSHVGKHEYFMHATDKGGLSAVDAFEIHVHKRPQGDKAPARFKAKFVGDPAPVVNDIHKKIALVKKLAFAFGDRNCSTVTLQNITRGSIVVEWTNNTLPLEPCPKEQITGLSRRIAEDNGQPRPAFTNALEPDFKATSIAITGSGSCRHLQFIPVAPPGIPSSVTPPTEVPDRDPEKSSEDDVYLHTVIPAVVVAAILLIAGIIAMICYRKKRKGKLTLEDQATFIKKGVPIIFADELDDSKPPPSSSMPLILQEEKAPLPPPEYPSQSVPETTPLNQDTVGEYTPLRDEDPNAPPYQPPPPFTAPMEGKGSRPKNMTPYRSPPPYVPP

DG-G [3] = molecular target: T1, DG-G; experiment: blot overlay assay (FIG. 7C)
DG-WT [4] = molecular target: T2, DG-WT; experiment: blot overlay assay (FIG. 7C)
DG-G [5] = molecular target: T1, DG-G; experiment: restated in the in vivo section
DG-WT [6] = molecular target: T2, DG-WT; experiment: restated in the in vivo section
[7] = molecular target: T3, α-DG from Large^myd mouse skeletal muscle treated with Ad5-LARGE/eGFP (mouse) (UniProt Q62165); experiment: solid-phase laminin-binding assay (FIG. 1e)
T3 sequence (LARGE-induced glycosylation; sites not stated, looked up): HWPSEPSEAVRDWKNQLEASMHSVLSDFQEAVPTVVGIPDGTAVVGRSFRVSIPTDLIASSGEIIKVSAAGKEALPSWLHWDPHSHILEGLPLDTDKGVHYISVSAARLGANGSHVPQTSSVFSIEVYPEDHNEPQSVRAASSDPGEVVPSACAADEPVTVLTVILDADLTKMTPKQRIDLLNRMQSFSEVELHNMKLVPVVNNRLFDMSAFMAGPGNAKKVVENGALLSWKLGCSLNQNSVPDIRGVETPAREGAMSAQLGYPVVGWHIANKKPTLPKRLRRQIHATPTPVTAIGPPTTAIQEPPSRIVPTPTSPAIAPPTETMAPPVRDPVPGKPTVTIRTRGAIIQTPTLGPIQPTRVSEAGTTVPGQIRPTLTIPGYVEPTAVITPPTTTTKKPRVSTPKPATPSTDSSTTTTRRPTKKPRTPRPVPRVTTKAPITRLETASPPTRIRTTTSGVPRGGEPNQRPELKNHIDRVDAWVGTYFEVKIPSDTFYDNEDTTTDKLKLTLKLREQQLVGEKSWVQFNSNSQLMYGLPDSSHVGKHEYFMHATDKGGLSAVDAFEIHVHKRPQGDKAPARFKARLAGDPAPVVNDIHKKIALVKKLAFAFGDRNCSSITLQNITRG

[8] = molecular target: T4, α-DG from control mouse skeletal muscle treated with Ad5-LARGE/eGFP (mouse) (UniProt Q62165); experiment: solid-phase laminin-binding assay (FIG. 1e)
T4 sequence (LARGE-induced hyperglycosylation; sites not stated, looked up): T3 sequence (LARGE-induced glycosylation; sites not stated, looked up)

[9] = molecular target: T3, α-DG from Large^myd mouse skeletal muscle treated with Ad5-LARGE/eGFP (mouse); experiment: ligand overlay on WGA-enriched muscle homogenate
[10] = molecular target: T4, α-DG from control mouse skeletal muscle treated with Ad5-LARGE/eGFP (mouse); experiment: ligand overlay on WGA-enriched muscle homogenate
[11] = molecular target: T5, DGFc2 prepared from cell lysate (human); experiment: pull-down on DGFc-protein A beads, anti-LARGE Western blot (FIG. 10B)
T5 sequence (looked up): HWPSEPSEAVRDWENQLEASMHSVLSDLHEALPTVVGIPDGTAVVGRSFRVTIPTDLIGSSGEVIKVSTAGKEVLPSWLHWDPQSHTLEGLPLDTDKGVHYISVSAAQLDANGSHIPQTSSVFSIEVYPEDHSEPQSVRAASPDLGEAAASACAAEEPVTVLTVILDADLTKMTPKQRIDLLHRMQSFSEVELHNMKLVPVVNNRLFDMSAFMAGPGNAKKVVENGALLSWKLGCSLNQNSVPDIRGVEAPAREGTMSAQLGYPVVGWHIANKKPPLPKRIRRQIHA

[12] = molecular target: T6, DGFc5 (CMK-treated, medium) (human); experiment: as above
T6 sequence (glycosylated; sites not stated, looked up): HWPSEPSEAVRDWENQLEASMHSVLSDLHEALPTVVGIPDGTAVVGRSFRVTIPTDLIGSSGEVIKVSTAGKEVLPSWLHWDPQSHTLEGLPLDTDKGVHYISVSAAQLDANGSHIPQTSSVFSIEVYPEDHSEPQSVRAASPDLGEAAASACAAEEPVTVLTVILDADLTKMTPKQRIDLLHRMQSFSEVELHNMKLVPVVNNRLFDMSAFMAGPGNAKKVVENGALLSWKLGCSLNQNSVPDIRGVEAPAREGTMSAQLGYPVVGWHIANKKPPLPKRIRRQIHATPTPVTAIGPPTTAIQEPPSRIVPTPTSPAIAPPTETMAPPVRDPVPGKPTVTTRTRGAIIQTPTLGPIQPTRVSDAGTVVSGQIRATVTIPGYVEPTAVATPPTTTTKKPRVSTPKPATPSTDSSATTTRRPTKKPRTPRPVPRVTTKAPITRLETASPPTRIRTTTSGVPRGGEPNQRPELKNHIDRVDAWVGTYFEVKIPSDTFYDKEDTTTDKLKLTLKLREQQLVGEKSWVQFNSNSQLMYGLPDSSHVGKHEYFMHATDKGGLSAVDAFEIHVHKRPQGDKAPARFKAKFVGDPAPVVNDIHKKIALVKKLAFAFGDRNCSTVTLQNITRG

[13] = molecular target: T7, DGFc5 prepared from cell lysate (human); experiment: as above
T7 sequence (looked up): T6 sequence (glycosylated; sites not stated, looked up)

binding (DG-G [1]): binds
binding (DG-WT [2]): binds
binding (DG-G [3]): binds
binding (DG-WT [4]): binds
binding (DG-G [5]): binds
binding (DG-WT [6]): binds
binding [7]: binds
binding [8]: binds
binding [9]: binds
binding [10]: binds
Molecule: laminin-1 (from UniProt P19137 25-3083; P02469 22-1786; P02468 34-1607) (ligand)

binding [11]: binds
binding [12]: binds
binding [13]: binds
B1: LARGE (enzyme, human, UniProt O95461 1-756, looked up)
chain: MLGICRGRRKFLAASLSLLCIPAITWIYLFSGSFEDGKPVSLSPLESQAHSPRYTASSQRERESLEVRMREVEEENRALRRQLSLAQGRAPSHRRGNHSKTYSMEEGTGDSENLRAGIVAGNSSECGQQPVVEKCETIHVAIVCAGYNASRDVVTLVKSVLFHRRNPLHFHLIADSIAEQILATLFQTWMVPAVRVDFYNADELKSEVSWIPNKHYSGIYGLMKLVLTKTLPANLERVIVLDTDITFATDIAELWAVFHKFKGQQVLGLVENQSDWYLGNLWKNHRPWPALGRGYNTGVILLLLDKLRKMKWEQMWRLTAERELMGMLSTSLADQDIFNAVIKQNPFLVYQLPCFWNVQLSDHTRSEQCYRDVSDLKVIHWNSPKKLRVKNKHVEFFRNLYLTFLEYDGNLLRRELFGCPSEADVNSENLQKQLSELDEDDLCYEFRRERFTVHRTHLYFLHYEYEPAADSTDVTLVAQLSMDRLQMLEAICKHWEGPISLALYLSDAEAQQFLRYAQGSEVLMSRHNVGYHIVYKEGQFYPVNLLRNVAMKHISTPYMFLSDIDFLPMYGLYEYLRKSVIQLDLANTKKAMIVPAFETLRYRLSFPKSKAELLSMLDMGTLFTFRYHVWTKGHAPTNFAKWRTATTPYRVEWEADFEPYVVVRRDCPEYDRRFVGFGWNKVAHIMELDVQEYEFIVLPNAYMIHMPHAPSFDITKFRSNKQYRICLKTLKEEFQQDMSRRYGFAALKYLTAENNS
